# From PubChem BioAssay AID2685 (National Center for Advancing Translational Sciences (NCATS), 2010)
# Some of the results follow. These are further read-outs of the screen, such as a control signal, another cell line or another target. No call is given for them. The list favours compounds with an active or inconclusive main result. The note in brackets gives the kind of curve behind each potency; many fits are weak.
# Test: qHTS Assay for Lipid Storage Modulators in Drosophila S3 Cells;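 on cell number change: cells counted by Cell Tracker Red CMTPX staining in the red channel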
# Conditions: BODIPY lipid droplet fluorescence, 18-24 h; for cell number change: measured here: cell count max response, cells fed with added oleic acid
# Summary of the method: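 Drosophila S3 cells loaded with oleic acid (400 uM, as added) and compounds at several concentrations; lipid droplets imaged by 488-nm laser-scanning cytometry, 500–530 nm intensity and object ratio to cell channel. Percent activity normalized to 20 uM Triacsin C.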
# [1] = measured here: lipid fluorescence (Fed channel) AC50, cells fed with added oleic acid
# [2] = measured here: cell number channel AC50, cells fed with added oleic acid
Structure (SMILES),cell number change [%],AC50 [1],AC50 [2]
O=C(NC1CCCCC1)NC1CCN(CC(=O)N2CCOCC2)CC1,8.36,"29.1 µM [falling, single point]",
Cc1ccc(S(=O)(=O)/N=C(\CSC(N)=O)Nc2ccccc2)cc1,-52.2,"0.92 µM [falling, full curve]","0.146 µM [falling, full curve]"
CC(C)Oc1ccc(C2NC(=O)NC2=O)cc1 (stereo not drawn),1.29,,
O=C(NNC(=O)c1cccs1)c1ccc(Cl)c(Cl)c1,22.3,"2.59 µM [rising, single point]",
COc1cccc(C(=O)n2cnnc2N)c1OC,,"6.51 µM [falling, single point]",
O=C(CCS(=O)(=O)c1ccccc1)NCCS(=O)(=O)c1ccccc1,,"0.58 µM [falling, single point]","1.64 µM [falling, single point]"
Cc1ccc(C(O)CCc2ccc(N)cc2)cc1 (stereo not drawn),15.3,"0.731 µM [rising, full curve, poor fit]",
C/C(=N/Oc1nc(C)cc(C)n1)c1ccc(F)cc1,13.9,,
CC(=O)N(CCS(=O)(=O)c1ccc(Cl)cc1)Cc1cccs1,,"0.058 µM [falling, full curve, poor fit]","0.0651 µM [falling, full curve, poor fit]"
COc1ccc(CN2CCC(Cc3ccccc3)CC2)cc1OC,4.05,"1.84 µM [falling, single point]",
O=C(O)C1CC=CCC1C(=O)NNc1c(Cl)cc(Cl)cc1Cl (stereo not drawn),-19.4,"0.146 µM [falling, full curve, poor fit]","0.082 µM [falling, full curve, poor fit]"
COc1ccc(/C=N/NC(=O)c2ccc(NC(C)=O)cc2)cc1COc1ccc(F)cc1F,-60.9,"5.17 µM [falling, full curve]","5.8 µM [falling, full curve]"
O=C(COC(=O)CNC(=O)c1ccccc1)NCCc1ccccc1,-34.5,,"32.6 µM [falling, single point]"
CCOC(=O)/C=C1\Nc2ccccc2OC1=O,-1.5,"0.58 µM [rising, single point]",
O=C(COc1ccc(Cl)cc1Cl)N1CCN(C(=O)c2ccco2)CC1,7.89,,
Cc1ccc(NC(=O)C2CC(=O)N(C(C)C)C2)cc1C (stereo not drawn),23.7,"29.1 µM [rising, single point]",
CN(CC1CCN(CCc2cccc(C(F)(F)F)c2)CC1)C(=O)c1ccc(F)cc1,-29.9,"1.84 µM [falling, full curve]",
O=C(c1cccc(-c2ccccc2F)c1)N1CC[C@@H](N2CCC(O)CC2)[C@H](O)C1,-11.4,,
O=C(Nc1ccc(N2CCOCC2)cc1)C1CCCCC1,15.7,"4.11 µM [falling, full curve, poor fit]","0.58 µM [rising, full curve, poor fit]"
CN(C)S(=O)(=O)c1ccc(N2CCCC2)c(C(=O)NNC(=O)c2ccc(Br)cc2)c1,131,"29.1 µM [rising, single point]","29.1 µM [rising, single point]"

Structure (SMILES),cell number change [%],AC50 [1],AC50 [2]
Cc1cccc(Nc2nc3c(S(=O)(=O)c4ccccc4)nnn3c3ccccc23)c1,-1.33,,
S=C(NCc1ccncc1)Nc1cc(Cl)cc(Cl)c1,-6.07,"29.1 µM [falling, single point]",
O=C(CSc1ccc2nnc(-c3ccncc3)n2n1)Nc1ccccc1F,3.9,"3.66 µM [falling, full curve]",
O=C(Nc1ccnc(-c2ccncc2)n1)c1ccc(F)cc1,18.2,,"4.61 µM [rising, partial curve, poor fit]"
Cc1c(C)n(C)c2ccc(C(=O)NCCCN3CCN(C)CC3)cc12,9.17,,
COc1ccc(-c2nn(-c3ccccc3)cc2C(N)=O)cc1OC,3.81,,
O=C(c1ccccc1)N1CCN(C(=O)c2ccc3c(c2)OCO3)CC1,10.1,"0.517 µM [rising, full curve]",
O=C(Cn1cccc1C(=O)c1ccccc1)NCc1ccc2c(c1)OCO2,26.1,"0.651 µM [rising, full curve]","3.26 µM [rising, partial curve]"
CCCC(=O)N1CCN(c2ccc(NC(=O)c3cccs3)cc2Cl)CC1,-31.7,"11.6 µM [falling, partial curve]","5.8 µM [falling, partial curve]"
CCCn1nc(C(=O)OCc2nc(N)nc(Nc3ccccc3C)n2)c2ccccc2c1=O,4.84,"23.1 µM [rising, single point]",
Cc1ccc(-c2noc(CCC(=O)NCc3ccc4c(c3)OCO4)n2)cc1,20.8,"5.17 µM [rising, full curve]",
Cc1ccc(NC(=O)c2cc(N3C(=O)C=CC3=O)ccc2Cl)cc1C,-58,"13 µM [falling, partial curve]","13 µM [falling, partial curve]"
CC(=O)c1ccc(NC(=O)CC(C)S(=O)(=O)c2ccc3c(c2)CCN3C(C)=O)cc1 (stereo not drawn),6.6,,
O=C(NC(=S)N1CCCCCC1)c1cccc([N+](=O)[O-])c1,,"7.31 µM [falling, partial curve, poor fit]",
O=C(O)c1cc(NC(=O)c2ccco2)cc(NC(=O)c2ccco2)c1,7.14,"6.51 µM [rising, single point]",
CCCCCn1c(=O)[nH]c2cc(C(=O)NCCCN3CCCCC3)ccc2c1=O,-28.8,"29.1 µM [falling, single point]",
CC1(C)CC(=O)C(C(c2cccnc2)C2C(=O)CC(C)(C)CC2=O)C(=O)C1,47.3,,"18.4 µM [rising, single point]"
Cc1cc2c3c([nH]c2cc1S(=O)(=O)N1CCC2(CC1)OCCO2)CCCC3=O,-19.5,,"4.61 µM [falling, single point]"
CC(C)C[C@H](NC(=O)N1CCn2c1nc1ccccc12)C(=O)NCc1ccccc1,-11.8,"0.146 µM [falling, full curve, poor fit]",
COc1ccccc1NC(=O)CSc1nc2nccnc2c(=O)n1Cc1cccs1,14.5,"0.58 µM [falling, single point]",

# Part of the list above, reduced to AC50 [1] and cell number change [%].
Structure (SMILES),AC50 [1],cell number change [%]
CC(C)Oc1ccc(C2NC(=O)NC2=O)cc1 (stereo not drawn),,1.29
CN(CC1CCN(CCc2cccc(C(F)(F)F)c2)CC1)C(=O)c1ccc(F)cc1,"1.84 µM [falling, full curve]",-29.9
COc1ccc(-c2nn(-c3ccccc3)cc2C(N)=O)cc1OC,,3.81
O=C(c1ccccc1)N1CCN(C(=O)c2ccc3c(c2)OCO3)CC1,"0.517 µM [rising, full curve]",10.1
CCCn1nc(C(=O)OCc2nc(N)nc(Nc3ccccc3C)n2)c2ccccc2c1=O,"23.1 µM [rising, single point]",4.84

# The list continues:

Structure (SMILES),cell number change [%],AC50 [1],AC50 [2]
CCOc1cc(/C=C/C(=O)c2ccc(OC)c(CN3CCOCC3)c2)cc(Br)c1O,-92.1,,
O=C1COc2ccc(C(=O)c3ccccc3C(=O)O)cc2N1,-2.53,"0.164 µM [rising, full curve, poor fit]",
Cc1ccc(C(CC(=O)c2ccco2)SCCO)cc1 (stereo not drawn),-0.862,,
O=C(COC(=O)C1CCN(S(=O)(=O)c2cc([N+](=O)[O-])ccc2Cl)CC1)Nc1ncc(Cl)cc1Cl,-0.64,"4.61 µM [falling, partial curve]","6.51 µM [falling, single point]"
Cc1onc(-c2ccccc2Cl)c1C(=O)O/N=C(\N)c1ccc([N+](=O)[O-])o1,-28.2,"29.1 µM [falling, single point]",
COC(=O)c1ccc(CNC(=O)CSc2nc3sc(C)c(C)c3c(=O)n2C)o1,24.5,"0.411 µM [rising, single point]",
Oc1oc(-c2ccc(Br)cc2)nc1C=Nc1ccc(Br)cn1,13.1,"14.6 µM [rising, partial curve, poor fit]",
O=C(O)C1CCCCC1C(=O)OCCCCOC(=O)C1CCCCC1C(=O)O (stereo not drawn),-4.46,"1.3 µM [falling, full curve, poor fit]",
CC(C)CCn1c(Sc2nc3ccccc3o2)nc2c1c(=O)[nH]c(=O)n2C,0.161,"18.4 µM [falling, partial curve, poor fit]",
CNC(=O)c1nn(-c2ccc(C)cc2)ccc1=O,-84.6,"18.4 µM [falling, partial curve, poor fit]","32.6 µM [falling, partial curve]"
Cc1ccc(-c2nn(CC(=O)Nc3cccnc3)c(=O)c3ccccc23)cc1,35.5,"18.4 µM [rising, partial curve]","0.82 µM [rising, full curve]"
CCN(C(=O)COC(=O)c1cccc(-n2cnnn2)c1)C1CCCCC1,-35.2,,"0.58 µM [rising, single point]"
Cc1ccc(C(=O)NC(=S)Nc2cc(C(F)(F)F)ccc2Cl)cc1,136,"29.1 µM [rising, partial curve, poor fit]",
CCOc1ccc(S(=O)(=O)Nc2ccc3c(c2)OCO3)cc1,10.1,"6.51 µM [falling, single point]",
O=C(CSc1nnc(-c2ccc(Br)o2)n1Cc1ccccc1)c1ccccc1F,,"0.651 µM [rising, full curve]","0.291 µM [rising, partial curve, poor fit]"
O=C(O)c1cccc(Nc2ncnc3c2cnn3-c2ccccc2)c1,1.25,"0.82 µM [falling, partial curve]",
COc1ccc(CC(=O)Nc2cccc(C(=O)O)c2C)cc1,-4.97,"29.1 µM [falling, single point]",
CCOC(=O)C1CCN(S(=O)(=O)c2cc(Cl)c(C)cc2OC)CC1,-10.4,,
COc1ccc(-c2nc(CS(=O)(=O)CC(=O)NCc3cccc(F)c3)c(C)o2)cc1,44.1,,"32.6 µM [rising, single point]"
CCC(C)(C)NC(=O)/C=C/c1ccccc1[N+](=O)[O-],62.1,,"18.4 µM [rising, single point]"
